Data from US20220119490A1.
No constants are given. Whether binding was seen depends on the method and setting. For some assays here: Binding seen in cells or lysates may run through a third protein. Some entries that bind do so weakly or less than the wild type. For some assays here: Where a sequence is shown, tags or fusion partners need not be part of it. One block for each substance: values may come before it.

Chains of the proteins cited; added tags and fusions are not shown. Residues count along the entry.
UniProt Q9NT99, residues 36-713: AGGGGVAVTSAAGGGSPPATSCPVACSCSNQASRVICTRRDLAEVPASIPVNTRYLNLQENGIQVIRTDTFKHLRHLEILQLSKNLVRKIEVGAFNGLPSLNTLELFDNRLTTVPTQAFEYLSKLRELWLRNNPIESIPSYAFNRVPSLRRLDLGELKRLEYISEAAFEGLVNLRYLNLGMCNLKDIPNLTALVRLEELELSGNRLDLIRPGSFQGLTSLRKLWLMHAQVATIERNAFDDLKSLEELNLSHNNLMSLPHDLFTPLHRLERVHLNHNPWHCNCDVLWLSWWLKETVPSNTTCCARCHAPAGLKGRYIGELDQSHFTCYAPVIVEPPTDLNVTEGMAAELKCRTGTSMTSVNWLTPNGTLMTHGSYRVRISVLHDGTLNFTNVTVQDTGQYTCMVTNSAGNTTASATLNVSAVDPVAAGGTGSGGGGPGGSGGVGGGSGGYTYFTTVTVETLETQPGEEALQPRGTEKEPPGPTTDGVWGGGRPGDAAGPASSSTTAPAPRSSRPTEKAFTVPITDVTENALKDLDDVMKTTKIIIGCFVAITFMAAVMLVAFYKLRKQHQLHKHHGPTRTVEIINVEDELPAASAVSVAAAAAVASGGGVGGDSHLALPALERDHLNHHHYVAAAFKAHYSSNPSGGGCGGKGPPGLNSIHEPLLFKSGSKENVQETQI
UniProt P30530, residues 26-894: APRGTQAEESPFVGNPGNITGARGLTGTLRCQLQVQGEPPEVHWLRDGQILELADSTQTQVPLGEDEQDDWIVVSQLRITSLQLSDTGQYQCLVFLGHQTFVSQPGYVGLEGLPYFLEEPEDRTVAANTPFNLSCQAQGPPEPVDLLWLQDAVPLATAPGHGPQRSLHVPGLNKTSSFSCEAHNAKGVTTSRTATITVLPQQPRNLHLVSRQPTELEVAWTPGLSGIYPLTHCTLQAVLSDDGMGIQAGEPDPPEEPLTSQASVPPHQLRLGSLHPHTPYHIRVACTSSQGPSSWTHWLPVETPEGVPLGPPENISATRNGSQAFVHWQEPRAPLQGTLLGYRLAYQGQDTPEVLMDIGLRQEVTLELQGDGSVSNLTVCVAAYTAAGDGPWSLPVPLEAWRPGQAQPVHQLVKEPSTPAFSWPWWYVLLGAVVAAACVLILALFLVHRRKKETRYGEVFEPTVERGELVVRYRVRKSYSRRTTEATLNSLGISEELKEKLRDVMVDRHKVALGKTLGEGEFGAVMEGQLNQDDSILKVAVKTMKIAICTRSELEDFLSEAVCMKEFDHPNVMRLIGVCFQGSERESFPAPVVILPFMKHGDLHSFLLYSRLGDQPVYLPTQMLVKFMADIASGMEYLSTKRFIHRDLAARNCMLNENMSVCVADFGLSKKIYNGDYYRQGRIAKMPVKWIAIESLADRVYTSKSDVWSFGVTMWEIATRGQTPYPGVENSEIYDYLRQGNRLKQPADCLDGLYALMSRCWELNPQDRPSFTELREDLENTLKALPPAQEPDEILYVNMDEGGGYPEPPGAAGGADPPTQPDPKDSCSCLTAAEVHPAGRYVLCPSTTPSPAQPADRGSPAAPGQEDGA
UniProt Q8NHL6, residues 24-650: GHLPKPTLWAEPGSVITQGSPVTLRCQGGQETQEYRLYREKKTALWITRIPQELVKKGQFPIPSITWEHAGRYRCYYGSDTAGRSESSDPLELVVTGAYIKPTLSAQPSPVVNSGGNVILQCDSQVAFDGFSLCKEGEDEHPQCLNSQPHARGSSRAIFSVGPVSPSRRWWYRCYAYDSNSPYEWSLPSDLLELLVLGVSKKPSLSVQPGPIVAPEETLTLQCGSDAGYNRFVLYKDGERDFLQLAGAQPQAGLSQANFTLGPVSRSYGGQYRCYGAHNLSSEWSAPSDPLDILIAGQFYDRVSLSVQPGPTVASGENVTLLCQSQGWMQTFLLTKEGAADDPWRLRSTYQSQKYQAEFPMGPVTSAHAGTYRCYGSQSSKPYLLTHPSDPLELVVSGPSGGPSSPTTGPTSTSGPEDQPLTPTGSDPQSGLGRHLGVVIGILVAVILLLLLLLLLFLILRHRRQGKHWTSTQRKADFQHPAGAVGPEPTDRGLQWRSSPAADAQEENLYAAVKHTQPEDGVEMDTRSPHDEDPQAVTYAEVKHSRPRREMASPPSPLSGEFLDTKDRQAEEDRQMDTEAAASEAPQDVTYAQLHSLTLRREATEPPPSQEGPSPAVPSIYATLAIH
UniProt P08887, residues 20-468: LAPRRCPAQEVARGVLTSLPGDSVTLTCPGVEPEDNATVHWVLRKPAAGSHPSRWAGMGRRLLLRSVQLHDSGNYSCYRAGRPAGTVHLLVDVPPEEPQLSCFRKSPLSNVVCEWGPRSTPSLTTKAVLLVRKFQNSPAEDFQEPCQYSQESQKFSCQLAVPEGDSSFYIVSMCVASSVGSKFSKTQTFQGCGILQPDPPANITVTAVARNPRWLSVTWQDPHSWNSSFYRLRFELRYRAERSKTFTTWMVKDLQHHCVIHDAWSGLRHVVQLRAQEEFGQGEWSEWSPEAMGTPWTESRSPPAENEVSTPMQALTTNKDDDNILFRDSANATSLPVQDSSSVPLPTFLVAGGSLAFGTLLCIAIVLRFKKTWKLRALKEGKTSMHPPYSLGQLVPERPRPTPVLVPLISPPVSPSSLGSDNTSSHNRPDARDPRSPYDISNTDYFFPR
UniProt O00481, residues 30-513: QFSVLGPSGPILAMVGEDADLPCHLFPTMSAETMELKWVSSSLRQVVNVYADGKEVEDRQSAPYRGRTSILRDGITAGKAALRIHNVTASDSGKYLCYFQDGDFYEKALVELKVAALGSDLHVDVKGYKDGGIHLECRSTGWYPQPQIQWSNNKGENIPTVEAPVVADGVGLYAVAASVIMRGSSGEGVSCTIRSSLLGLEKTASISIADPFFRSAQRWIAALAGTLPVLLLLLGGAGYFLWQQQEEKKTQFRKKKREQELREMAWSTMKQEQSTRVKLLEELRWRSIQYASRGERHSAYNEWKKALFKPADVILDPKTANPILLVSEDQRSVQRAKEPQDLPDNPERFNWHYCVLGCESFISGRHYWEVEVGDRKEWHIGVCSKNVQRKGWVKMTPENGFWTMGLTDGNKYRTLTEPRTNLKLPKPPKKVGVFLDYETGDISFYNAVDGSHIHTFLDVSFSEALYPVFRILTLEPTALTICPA
UniProt P78410, residues 30-334: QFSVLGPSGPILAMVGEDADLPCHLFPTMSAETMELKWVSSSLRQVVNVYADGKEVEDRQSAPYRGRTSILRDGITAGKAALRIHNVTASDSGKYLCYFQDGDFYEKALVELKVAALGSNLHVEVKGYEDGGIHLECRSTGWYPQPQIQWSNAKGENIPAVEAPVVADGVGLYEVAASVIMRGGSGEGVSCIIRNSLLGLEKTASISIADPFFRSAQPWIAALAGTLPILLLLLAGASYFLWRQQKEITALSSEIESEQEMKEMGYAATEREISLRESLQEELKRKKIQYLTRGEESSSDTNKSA
UniProt O00478, residues 30-584: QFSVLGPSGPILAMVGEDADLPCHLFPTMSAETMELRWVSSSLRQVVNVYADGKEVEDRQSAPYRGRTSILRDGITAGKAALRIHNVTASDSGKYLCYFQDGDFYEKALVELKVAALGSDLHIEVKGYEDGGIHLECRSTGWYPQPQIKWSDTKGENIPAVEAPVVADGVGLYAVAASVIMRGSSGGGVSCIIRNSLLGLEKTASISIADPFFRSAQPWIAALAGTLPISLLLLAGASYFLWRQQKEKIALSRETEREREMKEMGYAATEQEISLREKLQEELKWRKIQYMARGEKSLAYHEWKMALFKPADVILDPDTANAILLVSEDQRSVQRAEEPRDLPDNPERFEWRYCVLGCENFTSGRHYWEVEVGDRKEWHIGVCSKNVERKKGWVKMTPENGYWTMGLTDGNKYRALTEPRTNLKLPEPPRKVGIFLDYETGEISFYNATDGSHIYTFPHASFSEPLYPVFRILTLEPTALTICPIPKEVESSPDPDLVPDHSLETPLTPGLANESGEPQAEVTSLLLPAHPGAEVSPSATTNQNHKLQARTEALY
UniProt O43493, residues 22-437: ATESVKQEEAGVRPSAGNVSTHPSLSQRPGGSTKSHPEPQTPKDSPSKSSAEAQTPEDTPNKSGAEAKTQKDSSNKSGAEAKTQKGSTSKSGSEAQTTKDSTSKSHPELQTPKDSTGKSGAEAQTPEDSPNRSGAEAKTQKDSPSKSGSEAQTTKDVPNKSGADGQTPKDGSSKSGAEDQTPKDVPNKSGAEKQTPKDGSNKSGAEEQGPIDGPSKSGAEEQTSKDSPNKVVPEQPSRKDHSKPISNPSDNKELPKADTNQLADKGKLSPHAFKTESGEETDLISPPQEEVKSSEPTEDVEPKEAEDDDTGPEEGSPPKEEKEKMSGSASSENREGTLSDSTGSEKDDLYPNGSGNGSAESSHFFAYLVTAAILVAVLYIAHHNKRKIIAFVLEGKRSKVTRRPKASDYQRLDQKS
UniProt Q9NSI5: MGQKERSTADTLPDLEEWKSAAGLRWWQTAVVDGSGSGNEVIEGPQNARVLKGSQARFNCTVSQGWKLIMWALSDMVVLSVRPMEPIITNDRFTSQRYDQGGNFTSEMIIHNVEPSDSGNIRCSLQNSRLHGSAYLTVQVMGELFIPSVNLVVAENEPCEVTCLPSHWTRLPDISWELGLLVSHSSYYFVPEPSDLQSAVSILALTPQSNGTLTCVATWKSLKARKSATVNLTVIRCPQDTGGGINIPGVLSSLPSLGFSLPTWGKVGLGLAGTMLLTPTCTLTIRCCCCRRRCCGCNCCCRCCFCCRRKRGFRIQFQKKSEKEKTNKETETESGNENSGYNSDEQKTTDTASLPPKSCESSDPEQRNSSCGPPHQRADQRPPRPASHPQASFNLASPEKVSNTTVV
UniProt Q01638, residues 19-556: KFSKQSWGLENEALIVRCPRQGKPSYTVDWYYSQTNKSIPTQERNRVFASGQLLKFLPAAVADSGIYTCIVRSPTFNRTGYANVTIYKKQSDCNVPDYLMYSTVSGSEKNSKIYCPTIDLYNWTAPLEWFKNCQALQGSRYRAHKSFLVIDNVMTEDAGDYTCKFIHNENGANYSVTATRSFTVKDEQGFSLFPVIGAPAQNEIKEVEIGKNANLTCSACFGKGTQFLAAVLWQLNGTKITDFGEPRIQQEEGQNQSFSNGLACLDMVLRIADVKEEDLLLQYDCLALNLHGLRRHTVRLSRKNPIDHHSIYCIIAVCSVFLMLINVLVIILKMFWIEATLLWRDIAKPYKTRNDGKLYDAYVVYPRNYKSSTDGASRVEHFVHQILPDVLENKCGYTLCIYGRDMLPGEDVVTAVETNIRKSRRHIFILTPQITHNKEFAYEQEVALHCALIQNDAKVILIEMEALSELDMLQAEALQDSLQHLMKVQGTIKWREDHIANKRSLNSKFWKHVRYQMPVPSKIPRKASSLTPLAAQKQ
UniProt Q9Y5Y6: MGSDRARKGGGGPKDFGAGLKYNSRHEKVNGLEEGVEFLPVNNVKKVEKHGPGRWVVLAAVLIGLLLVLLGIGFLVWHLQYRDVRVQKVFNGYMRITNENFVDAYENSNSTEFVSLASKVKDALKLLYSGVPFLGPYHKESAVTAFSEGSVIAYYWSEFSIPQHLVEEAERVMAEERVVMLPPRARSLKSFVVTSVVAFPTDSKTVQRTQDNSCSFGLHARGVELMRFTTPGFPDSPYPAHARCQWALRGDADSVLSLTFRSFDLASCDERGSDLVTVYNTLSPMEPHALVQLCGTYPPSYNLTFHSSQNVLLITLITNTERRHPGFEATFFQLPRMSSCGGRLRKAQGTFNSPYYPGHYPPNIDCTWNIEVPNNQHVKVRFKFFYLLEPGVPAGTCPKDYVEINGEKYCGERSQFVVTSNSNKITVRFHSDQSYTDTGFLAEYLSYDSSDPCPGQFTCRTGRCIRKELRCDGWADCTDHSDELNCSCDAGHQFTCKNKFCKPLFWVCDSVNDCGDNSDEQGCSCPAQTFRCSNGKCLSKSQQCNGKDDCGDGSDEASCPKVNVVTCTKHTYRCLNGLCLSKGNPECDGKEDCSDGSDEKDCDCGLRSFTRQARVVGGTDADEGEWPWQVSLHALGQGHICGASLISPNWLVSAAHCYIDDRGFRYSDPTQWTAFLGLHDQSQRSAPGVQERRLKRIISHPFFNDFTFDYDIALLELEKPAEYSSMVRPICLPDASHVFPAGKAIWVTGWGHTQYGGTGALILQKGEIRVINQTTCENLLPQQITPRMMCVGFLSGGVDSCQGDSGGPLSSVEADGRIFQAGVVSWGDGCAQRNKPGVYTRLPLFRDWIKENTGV

Experiments:
[1] = biological target: T1, VSIG10L full-length (co-IP) (human) (UniProt Q86VR7); experiment: co-immunoprecipitation, VSIG10L-FLAG with AXL-HA co-expressed in cells
T1 sequence (looked up): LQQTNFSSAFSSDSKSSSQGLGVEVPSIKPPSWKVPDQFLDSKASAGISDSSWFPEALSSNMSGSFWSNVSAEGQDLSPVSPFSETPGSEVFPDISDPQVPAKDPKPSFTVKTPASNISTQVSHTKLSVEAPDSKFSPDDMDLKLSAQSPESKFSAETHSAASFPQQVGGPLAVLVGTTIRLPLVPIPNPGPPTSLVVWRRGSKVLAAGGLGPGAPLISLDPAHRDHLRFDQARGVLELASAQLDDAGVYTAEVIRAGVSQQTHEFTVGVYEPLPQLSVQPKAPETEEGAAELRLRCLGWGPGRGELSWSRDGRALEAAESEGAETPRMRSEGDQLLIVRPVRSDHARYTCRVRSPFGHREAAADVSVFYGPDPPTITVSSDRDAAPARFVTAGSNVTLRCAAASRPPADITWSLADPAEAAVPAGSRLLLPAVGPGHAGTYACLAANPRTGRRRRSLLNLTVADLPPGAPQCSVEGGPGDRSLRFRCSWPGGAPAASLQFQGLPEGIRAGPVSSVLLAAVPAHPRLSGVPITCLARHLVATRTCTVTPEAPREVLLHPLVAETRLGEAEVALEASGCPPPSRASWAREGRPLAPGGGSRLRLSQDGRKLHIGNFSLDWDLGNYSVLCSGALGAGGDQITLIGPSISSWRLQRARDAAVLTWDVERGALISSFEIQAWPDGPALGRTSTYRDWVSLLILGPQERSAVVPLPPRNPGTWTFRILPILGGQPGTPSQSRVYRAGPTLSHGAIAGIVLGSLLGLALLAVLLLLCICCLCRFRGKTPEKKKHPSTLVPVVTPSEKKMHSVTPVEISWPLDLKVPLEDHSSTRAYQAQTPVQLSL

[2] = biological target: LRRC4B expressed on cells (human) (UniProt Q9NT99); experiment: co-immunoprecipitation, LRRC4B-FLAG with BTN3A1-HA co-expressed in cells (FIG. 12F)
[3] = biological target: LRRC4B expressed on cells (human) (UniProt Q9NT99); experiment: co-immunoprecipitation, LRRC4B-FLAG with BTN3A2-HA co-expressed in cells
[4] = biological target: LRRC4B expressed on cells (human) (UniProt Q9NT99); experiment: co-immunoprecipitation, LRRC4B-FLAG with BTN3A3-HA co-expressed in cells (FIG. 5I)
CD300LF-HA (human) = biological target: T2, CD300LF-HA (human) (UniProt Q8TDQ1); experiment: co-immunoprecipitation from co-transfected cells, IP anti-FLAG, western blot anti-HA
T2 sequence (co-expressed protein, looked up): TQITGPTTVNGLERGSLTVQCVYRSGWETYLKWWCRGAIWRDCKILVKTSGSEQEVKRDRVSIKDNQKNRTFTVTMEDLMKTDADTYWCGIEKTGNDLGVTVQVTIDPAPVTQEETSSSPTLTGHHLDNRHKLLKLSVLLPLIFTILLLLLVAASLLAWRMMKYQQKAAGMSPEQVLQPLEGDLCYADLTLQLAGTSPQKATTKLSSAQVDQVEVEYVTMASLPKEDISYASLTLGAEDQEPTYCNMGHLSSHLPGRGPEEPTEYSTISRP

CD300A-HA (human) = biological target: T3, CD300A-HA (human) (UniProt Q9UGN4); experiment: as above
T3 sequence (co-expressed protein, looked up): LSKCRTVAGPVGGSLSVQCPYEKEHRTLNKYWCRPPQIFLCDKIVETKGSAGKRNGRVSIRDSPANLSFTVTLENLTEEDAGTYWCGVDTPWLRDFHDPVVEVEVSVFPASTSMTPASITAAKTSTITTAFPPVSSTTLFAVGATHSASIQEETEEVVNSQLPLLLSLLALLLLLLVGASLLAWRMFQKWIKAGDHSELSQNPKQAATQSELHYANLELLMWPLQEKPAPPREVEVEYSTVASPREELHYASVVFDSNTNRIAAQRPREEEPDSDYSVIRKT

[5] = biological target: AXL full-length (co-IP) (human) (UniProt P30530); experiment: co-immunoprecipitation from co-transfected cells, IP anti-FLAG, western blot
[6] = biological target: LILRB1 expressed on cells (human) (UniProt Q8NHL6); experiment: co-immunoprecipitation, LILRB1-FLAG with IL6R-HA co-expressed in cells
[7] = biological target: T4, EDAR expressed on cells (human) (UniProt Q9UNE0); experiment: co-immunoprecipitation from co-transfected cells, IP anti-FLAG, western blot
T4 sequence (looked up): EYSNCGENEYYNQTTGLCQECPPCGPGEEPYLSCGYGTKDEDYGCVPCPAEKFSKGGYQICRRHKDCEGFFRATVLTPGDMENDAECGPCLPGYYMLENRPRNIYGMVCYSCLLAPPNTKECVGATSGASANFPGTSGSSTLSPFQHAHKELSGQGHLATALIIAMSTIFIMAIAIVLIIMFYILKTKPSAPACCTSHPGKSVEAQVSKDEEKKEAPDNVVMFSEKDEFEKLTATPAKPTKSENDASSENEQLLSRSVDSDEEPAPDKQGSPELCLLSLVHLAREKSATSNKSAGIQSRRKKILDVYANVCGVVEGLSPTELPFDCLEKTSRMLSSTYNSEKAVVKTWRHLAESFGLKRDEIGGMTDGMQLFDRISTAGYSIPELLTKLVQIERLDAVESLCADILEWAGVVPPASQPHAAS

[8] = biological target: IL6R expressed on cells (human) (UniProt P08887); experiment: as above
[9] = biological target: T5, CNTFR expressed on cells (human) (UniProt P26992); experiment: as above
T5 sequence (looked up): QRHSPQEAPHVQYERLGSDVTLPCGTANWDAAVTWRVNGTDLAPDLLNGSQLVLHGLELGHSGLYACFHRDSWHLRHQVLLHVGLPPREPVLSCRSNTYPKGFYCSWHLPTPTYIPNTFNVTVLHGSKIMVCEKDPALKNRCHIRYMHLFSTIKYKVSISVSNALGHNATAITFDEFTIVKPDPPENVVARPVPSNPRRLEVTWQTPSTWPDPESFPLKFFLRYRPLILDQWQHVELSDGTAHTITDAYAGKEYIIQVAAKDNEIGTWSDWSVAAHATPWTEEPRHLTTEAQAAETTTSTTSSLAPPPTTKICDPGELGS

[10] = biological target: T6, CNTN1 extracellular domain (human) (UniProt Q12860); experiment: SPR; CNTN1 ECD-Fc immobilized on CM5, analyte at 250 nM (FIG. 9I)
T6 sequence (looked up): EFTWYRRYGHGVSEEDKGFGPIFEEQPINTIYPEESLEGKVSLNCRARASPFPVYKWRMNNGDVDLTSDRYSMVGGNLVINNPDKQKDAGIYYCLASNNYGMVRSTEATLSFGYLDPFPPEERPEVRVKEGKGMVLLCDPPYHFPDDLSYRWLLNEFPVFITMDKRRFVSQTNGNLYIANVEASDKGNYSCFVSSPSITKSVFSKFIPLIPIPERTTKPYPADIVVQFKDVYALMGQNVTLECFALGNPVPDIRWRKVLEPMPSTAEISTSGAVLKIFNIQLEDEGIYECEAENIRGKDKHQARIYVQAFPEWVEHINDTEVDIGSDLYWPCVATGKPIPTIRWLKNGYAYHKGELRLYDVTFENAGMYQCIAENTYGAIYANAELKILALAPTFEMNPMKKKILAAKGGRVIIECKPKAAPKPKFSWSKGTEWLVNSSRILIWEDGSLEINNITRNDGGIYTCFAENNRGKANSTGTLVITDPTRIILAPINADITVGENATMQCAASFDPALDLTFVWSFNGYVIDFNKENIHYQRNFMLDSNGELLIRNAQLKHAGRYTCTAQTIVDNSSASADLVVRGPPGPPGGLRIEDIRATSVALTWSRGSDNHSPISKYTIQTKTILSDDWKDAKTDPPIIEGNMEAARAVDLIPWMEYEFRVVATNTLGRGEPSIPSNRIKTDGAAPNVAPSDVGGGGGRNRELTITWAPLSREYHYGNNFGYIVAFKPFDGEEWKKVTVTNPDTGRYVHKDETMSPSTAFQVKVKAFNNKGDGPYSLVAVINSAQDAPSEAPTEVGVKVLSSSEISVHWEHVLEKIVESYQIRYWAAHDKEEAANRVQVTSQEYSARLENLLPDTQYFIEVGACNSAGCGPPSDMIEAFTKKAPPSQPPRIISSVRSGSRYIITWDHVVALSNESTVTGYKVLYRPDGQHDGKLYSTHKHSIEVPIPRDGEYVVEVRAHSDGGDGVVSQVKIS

[11] = biological target: BTN3A1 full-length (co-IP) (human) (UniProt O00481); experiment: co-immunoprecipitation from co-transfected cells, IP anti-FLAG, western blot anti-HA

Substance: AXL full-length (co-IP) (from UniProt P30530 26-894) (receptor)
- binding [1]: binds

Substance: BTN3A2 full-length (co-IP) (from UniProt P78410 30-334) (receptor)
- binding [3]: binds

Substance: BTN3A3 full-length (co-IP) (from UniProt O00478 30-584) (receptor)
- binding [4]: binds

Substance: NRCAM (recombinant) (from UniProt Q92823 25-1167) (receptor)
- binding [10]: binds

Substance: TGOLN2-FLAG (from UniProt O43493) (receptor)
- binding [11]: binds

Continued, values first:

- binding [2]: binds
Substance: BTN3A1 full-length (co-IP) (from UniProt O00481 30-513) (receptor)

- binding (CD300LF-HA (human)): binds
- binding (CD300A-HA (human)): binds
Substance: IGSF5-FLAG (from UniProt Q9NSI5) (receptor)

- binding [5]: binds
Substance: IL1RL1 expressed on cells (from UniProt Q01638 19-556) (receptor)

- binding [6]: binds
Substance: IL6R expressed on cells (from UniProt P08887 20-468) (receptor)

- binding [7]: binds
- binding [8]: binds
Substance: LILRB1 expressed on cells (from UniProt Q8NHL6 24-650) (receptor)

- binding [9]: binds
Substance: LILRB4 expressed on cells (from UniProt Q8NHJ6 22-448) (receptor)

- binding [11]: binds
Substance: ST14-FLAG (from UniProt Q9Y5Y6) (receptor)
